# Measurements published in the supplement of paper PMC12542422.
# Where a name gives a salt, the structure may show the parent alone. ± gives the standard deviation of the averaged measurements. Some of the results follow. Values are raw readings; no control value is given beside them.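 Ribosome-assembly readouts in HeLa cells were imaged via ENP1 staining, with or without export block, or inducible tagged ribosomal protein reporters. Machine learning classified per-cell signal location versus solvent (DMSO) controls. Hits surpassed the DMSO false-positive mean by five standard deviations and were visually confirmed; three biological replicates.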
# Test system: HeLa RPS2-YFP reporter
# Experiment: fraction of reporter-positive cells with nuclear (nucleolar or nucleolar/nucleoplasmic) RPS2-YFP (MainHitrate); higher = more cells with nucleolar/nuclear readout signal (for ENP1 -LMB: less RNAPI inhibition; for +LMB ENP1 and RP reporters: stronger nuclear/nucleolar retention, i.e. ribosome biogenesis defect)
# Conditions: concentration: 1 µM; treatment time: 6 h
row,SMILES,fraction of reporter-positive cells with nuclear
1,COc1ccc2[nH]c([S@@+]([O-])Cc3ncc(C)c(OC)c3C)nc2c1 [Esomeprazole magnesium (Nexium)],0.108 ± 0.088
2,CCC(NC(C)C)C(O)c1ccc(O)c(O)c1 (stereo not drawn) [Isoetharine Mesylate],0.186 ± 0.19
3,O=C1CC[C@@H](C(=O)N2CSC[C@H]2C(=O)O)N1 [Pidotimod],0.0978 ± 0.1
4,O=C(NCCN1CCOCC1)c1ccc(Cl)cc1 [Moclobemide],0.106 ± 0.085
5,C[C@H]1C[C@@H]2[C@H]([C@@H](O)C[C@@]3(C)[C@H]2CC[C@]3(O)C(=O)CO)[C@@]2(C)C=CC(=O)C=C12 [Methylprednisolone],0.161 ± 0.083
6,CCc1ccc(CCOc2ccc(CC3SC(=O)NC3=O)cc2)nc1 (stereo not drawn) [Pioglitazone (Actos)],0.105 ± 0.1
7,NS(=O)(=O)c1cc(Cl)c(Cl)c(S(N)(=O)=O)c1 [Dichlorphenamide (Diclofenamide)],0.106 ± 0.058
8,O=P(O)(O)C(O)(Cc1cccnc1)P(=O)(O)O [Risedronic acid (Actonel)],0.104 ± 0.087
9,CC(C)(S)[C@@H](N)C(=O)O [Penicillamine (Cuprimine)],0.134 ± 0.09
10,CCCCN1CCCCC1C(=O)Nc1c(C)cccc1C (stereo not drawn) [Bupivacaine hydrochloride (Marcain)],0.111 ± 0.058
11,CC(C)OC(=O)OCOP(=O)(CO[C@H](C)Cn1cnc2c(N)ncnc21)OCOC(=O)OC(C)C [Tenofovir Disoproxil Fumarate],0.115 ± 0.061
12,CC(=O)Oc1ccccc1C(=O)O [Aspirin (Acetylsalicylic acid)],0.116 ± 0.095
13,O=C1O[C@H]([C@@H](O)CO)C([O-])=C1O.[Na+] [Sodium ascorbate],0.187 ± 0.14

# Two entries picked at random from the list so far, as already listed:
row,SMILES,fraction of reporter-positive cells with nuclear
7,NS(=O)(=O)c1cc(Cl)c(Cl)c(S(N)(=O)=O)c1 [Dichlorphenamide (Diclofenamide)],0.106 ± 0.058
11,CC(C)OC(=O)OCOP(=O)(CO[C@H](C)Cn1cnc2c(N)ncnc21)OCOC(=O)OC(C)C [Tenofovir Disoproxil Fumarate],0.115 ± 0.061
